PubChem BioAssay AID1259405 | NCATS – 2018

Screen: 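Silenced genes that increase secreted GFP made by CHO cells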 (primary screen)
System: Chinese hamster CHO-K1 ovary cells with stable secreted eGFP expression
Knock-down reagent: single siRNA against mouse genes, 0.8 pmol siRNA per well (2 µl of 400 nM stock)
Duration: 3 days
Read-out: 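Percent of the per-plate non-targeting control median for intracellular GFP per well by laser scanning cytometry and for cell viability by ATP luminescence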
Scale: GFP, % of control: higher = more GFP per well, higher productivity; viability (ATP), % of control: higher = more viable cells (more ATP)
Call rule: 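Called active when intracellular GFP, relative to negative control, is at or above 120%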
The whole screen tested about 50,000 reagents; below is a random part of them. Over the whole deposit, about 4,000 (8%) got an active call. 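Mouse siRNA library applied to hamster cells; one well for each siRNA.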 Reagents against one gene are numbered here. Reagent sequences are not shown.

With 9930111J21Rik2 (RIKEN cDNA 9930111J21 gene 2) #1, what does the deposit list?
GFP, % of control: 47.8; viability (ATP), % of control: 42.6; Outcome: inactive

How did the screen score 9930111J21Rik2 (RIKEN cDNA 9930111J21 gene 2) #2?
GFP, % of control: 29.7; viability (ATP), % of control: 53.9; Outcome: inactive

Which result is listed for 9930111J21Rik2 (RIKEN cDNA 9930111J21 gene 2) #3?
GFP, % of control: 91; viability (ATP), % of control: 94.6; Outcome: inactive

What did the screen give for Pdha2 (pyruvate dehydrogenase E1 alpha 2) #1?
GFP, % of control: 82.1; viability (ATP), % of control: 79.4; Outcome: inactive

With Pdha2 (pyruvate dehydrogenase E1 alpha 2) #2, what was measured?
GFP, % of control: 83.7; viability (ATP), % of control: 83.3; Outcome: inactive

What is on record for Pdha2 (pyruvate dehydrogenase E1 alpha 2) #3?
GFP, % of control: 115; viability (ATP), % of control: 112; Outcome: inactive

With Evi5l (ecotropic viral integration site 5 like) #1, what was measured?
GFP, % of control: 97.5; viability (ATP), % of control: 84.3; Outcome: inactive

Which result is listed for Evi5l (ecotropic viral integration site 5 like) #2?
GFP, % of control: 70.3; viability (ATP), % of control: 62.1; Outcome: inactive

With Evi5l (ecotropic viral integration site 5 like) #3, what does the deposit list?
GFP, % of control: 82; viability (ATP), % of control: 79.2; Outcome: inactive

Which result is listed for Or13a28 (olfactory receptor family 13 subfamily A member 28) #1?
GFP, % of control: 114; viability (ATP), % of control: 35; Outcome: inactive

What is on record for Or13a28 (olfactory receptor family 13 subfamily A member 28) #2?
GFP, % of control: 66.3; viability (ATP), % of control: 70.1; Outcome: inactive

For Or13a28 (olfactory receptor family 13 subfamily A member 28) #3, how do the results read?
GFP, % of control: 32.9; viability (ATP), % of control: 47.4; Outcome: inactive

Which result is listed for Mrpl17 (mitochondrial ribosomal protein L17) #1?
GFP, % of control: 71.1; viability (ATP), % of control: 53.1; Outcome: inactive

With Mrpl17 (mitochondrial ribosomal protein L17) #2, how do the results read?
GFP, % of control: 73.6; viability (ATP), % of control: 58.8; Outcome: inactive

What did the screen give for Mrpl17 (mitochondrial ribosomal protein L17) #3?
GFP, % of control: 83.7; viability (ATP), % of control: 80.5; Outcome: inactive

How did the screen score Zfp566 (zinc finger protein 566) #1?
GFP, % of control: 84.6; viability (ATP), % of control: 91.9; Outcome: inactive

How did the screen score Zfp566 (zinc finger protein 566) #2?
GFP, % of control: 105; viability (ATP), % of control: 51.4; Outcome: inactive

What is on record for Zfp566 (zinc finger protein 566) #3?
GFP, % of control: 70.9; viability (ATP), % of control: 93.1; Outcome: inactive

How did the screen score Tmem192 (transmembrane protein 192) #1?
GFP, % of control: 121; viability (ATP), % of control: 75; Outcome: active

What did the screen give for Tmem192 (transmembrane protein 192) #2?
GFP, % of control: 61; viability (ATP), % of control: 58.4; Outcome: inactive

For Tmem192 (transmembrane protein 192) #3, what was measured?
GFP, % of control: 82.5; viability (ATP), % of control: 73.4; Outcome: inactive

For Phox2a (paired-like homeobox 2a) #1, how do the results read?
GFP, % of control: 125; viability (ATP), % of control: 88; Outcome: active

What did the screen give for Phox2a (paired-like homeobox 2a) #2?
GFP, % of control: 96.4; viability (ATP), % of control: 79.6; Outcome: inactive

What did the screen give for Tsc22d3 (TSC22 domain family, member 3) #1?
GFP, % of control: 75.1; viability (ATP), % of control: 47.6; Outcome: inactive

How did the screen score Tsc22d3 (TSC22 domain family, member 3) #2?
GFP, % of control: 54.5; viability (ATP), % of control: 55.8; Outcome: inactive

For Tsc22d3 (TSC22 domain family, member 3) #3, how do the results read?
GFP, % of control: 70.4; viability (ATP), % of control: 85.7; Outcome: inactive

For Mrps28 (mitochondrial ribosomal protein S28) #1, what was measured?
GFP, % of control: 74.4; viability (ATP), % of control: 56.3; Outcome: inactive

For Mrps28 (mitochondrial ribosomal protein S28) #2, how do the results read?
GFP, % of control: 97.6; viability (ATP), % of control: 89.2; Outcome: inactive

What is on record for Mrps28 (mitochondrial ribosomal protein S28) #3?
GFP, % of control: 58; viability (ATP), % of control: 53.5; Outcome: inactive
